# The supplement of paper PMC6411743
# Chains of the proteins cited; added tags and fusions are not shown. Lines headed by an entry give the natural chain unless they say otherwise; changes in a name come on top.
# UniProt Q5W0U4: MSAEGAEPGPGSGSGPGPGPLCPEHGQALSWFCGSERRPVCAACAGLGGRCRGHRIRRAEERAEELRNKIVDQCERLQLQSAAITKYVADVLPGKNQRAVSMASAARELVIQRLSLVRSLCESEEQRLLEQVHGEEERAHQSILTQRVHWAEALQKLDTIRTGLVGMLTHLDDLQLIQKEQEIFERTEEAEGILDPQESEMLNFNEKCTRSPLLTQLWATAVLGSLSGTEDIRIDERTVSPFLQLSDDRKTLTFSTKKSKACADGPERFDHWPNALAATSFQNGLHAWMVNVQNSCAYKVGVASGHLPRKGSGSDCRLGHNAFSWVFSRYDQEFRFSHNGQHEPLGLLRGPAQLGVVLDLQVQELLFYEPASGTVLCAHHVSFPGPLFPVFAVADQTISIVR
# UniProt Q9UKD1: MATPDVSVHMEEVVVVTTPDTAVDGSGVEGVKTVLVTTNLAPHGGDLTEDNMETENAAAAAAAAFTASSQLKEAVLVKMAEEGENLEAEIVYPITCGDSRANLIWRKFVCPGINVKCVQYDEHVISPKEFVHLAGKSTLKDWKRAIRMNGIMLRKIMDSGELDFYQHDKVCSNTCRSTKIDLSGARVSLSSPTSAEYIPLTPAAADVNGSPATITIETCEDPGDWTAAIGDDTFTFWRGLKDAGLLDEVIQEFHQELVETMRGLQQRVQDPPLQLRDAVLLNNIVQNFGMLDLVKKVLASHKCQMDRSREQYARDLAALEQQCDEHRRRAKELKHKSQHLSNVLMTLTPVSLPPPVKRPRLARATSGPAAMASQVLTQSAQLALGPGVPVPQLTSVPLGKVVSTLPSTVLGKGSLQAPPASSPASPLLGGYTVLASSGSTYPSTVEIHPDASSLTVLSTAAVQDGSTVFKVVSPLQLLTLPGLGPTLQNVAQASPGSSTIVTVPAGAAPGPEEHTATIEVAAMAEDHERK
# UniProt Q5HYK3: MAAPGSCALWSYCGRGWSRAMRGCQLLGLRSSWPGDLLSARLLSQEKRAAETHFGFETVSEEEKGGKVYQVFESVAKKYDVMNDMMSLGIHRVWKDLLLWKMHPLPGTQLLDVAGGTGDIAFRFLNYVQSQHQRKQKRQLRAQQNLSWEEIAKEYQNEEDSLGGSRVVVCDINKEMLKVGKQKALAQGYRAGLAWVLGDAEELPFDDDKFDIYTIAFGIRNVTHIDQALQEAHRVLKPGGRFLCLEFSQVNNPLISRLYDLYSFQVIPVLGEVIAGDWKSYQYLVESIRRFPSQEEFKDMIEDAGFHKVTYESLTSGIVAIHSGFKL
# UniProt Q53H82: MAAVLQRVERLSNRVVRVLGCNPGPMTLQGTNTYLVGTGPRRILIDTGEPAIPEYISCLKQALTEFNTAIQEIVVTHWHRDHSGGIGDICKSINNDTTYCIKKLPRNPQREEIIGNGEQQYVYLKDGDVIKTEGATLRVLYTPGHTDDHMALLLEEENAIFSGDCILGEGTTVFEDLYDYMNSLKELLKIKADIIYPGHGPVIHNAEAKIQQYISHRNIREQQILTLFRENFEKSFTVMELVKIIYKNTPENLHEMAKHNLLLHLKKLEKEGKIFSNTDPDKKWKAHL
# UniProt Q5THK1: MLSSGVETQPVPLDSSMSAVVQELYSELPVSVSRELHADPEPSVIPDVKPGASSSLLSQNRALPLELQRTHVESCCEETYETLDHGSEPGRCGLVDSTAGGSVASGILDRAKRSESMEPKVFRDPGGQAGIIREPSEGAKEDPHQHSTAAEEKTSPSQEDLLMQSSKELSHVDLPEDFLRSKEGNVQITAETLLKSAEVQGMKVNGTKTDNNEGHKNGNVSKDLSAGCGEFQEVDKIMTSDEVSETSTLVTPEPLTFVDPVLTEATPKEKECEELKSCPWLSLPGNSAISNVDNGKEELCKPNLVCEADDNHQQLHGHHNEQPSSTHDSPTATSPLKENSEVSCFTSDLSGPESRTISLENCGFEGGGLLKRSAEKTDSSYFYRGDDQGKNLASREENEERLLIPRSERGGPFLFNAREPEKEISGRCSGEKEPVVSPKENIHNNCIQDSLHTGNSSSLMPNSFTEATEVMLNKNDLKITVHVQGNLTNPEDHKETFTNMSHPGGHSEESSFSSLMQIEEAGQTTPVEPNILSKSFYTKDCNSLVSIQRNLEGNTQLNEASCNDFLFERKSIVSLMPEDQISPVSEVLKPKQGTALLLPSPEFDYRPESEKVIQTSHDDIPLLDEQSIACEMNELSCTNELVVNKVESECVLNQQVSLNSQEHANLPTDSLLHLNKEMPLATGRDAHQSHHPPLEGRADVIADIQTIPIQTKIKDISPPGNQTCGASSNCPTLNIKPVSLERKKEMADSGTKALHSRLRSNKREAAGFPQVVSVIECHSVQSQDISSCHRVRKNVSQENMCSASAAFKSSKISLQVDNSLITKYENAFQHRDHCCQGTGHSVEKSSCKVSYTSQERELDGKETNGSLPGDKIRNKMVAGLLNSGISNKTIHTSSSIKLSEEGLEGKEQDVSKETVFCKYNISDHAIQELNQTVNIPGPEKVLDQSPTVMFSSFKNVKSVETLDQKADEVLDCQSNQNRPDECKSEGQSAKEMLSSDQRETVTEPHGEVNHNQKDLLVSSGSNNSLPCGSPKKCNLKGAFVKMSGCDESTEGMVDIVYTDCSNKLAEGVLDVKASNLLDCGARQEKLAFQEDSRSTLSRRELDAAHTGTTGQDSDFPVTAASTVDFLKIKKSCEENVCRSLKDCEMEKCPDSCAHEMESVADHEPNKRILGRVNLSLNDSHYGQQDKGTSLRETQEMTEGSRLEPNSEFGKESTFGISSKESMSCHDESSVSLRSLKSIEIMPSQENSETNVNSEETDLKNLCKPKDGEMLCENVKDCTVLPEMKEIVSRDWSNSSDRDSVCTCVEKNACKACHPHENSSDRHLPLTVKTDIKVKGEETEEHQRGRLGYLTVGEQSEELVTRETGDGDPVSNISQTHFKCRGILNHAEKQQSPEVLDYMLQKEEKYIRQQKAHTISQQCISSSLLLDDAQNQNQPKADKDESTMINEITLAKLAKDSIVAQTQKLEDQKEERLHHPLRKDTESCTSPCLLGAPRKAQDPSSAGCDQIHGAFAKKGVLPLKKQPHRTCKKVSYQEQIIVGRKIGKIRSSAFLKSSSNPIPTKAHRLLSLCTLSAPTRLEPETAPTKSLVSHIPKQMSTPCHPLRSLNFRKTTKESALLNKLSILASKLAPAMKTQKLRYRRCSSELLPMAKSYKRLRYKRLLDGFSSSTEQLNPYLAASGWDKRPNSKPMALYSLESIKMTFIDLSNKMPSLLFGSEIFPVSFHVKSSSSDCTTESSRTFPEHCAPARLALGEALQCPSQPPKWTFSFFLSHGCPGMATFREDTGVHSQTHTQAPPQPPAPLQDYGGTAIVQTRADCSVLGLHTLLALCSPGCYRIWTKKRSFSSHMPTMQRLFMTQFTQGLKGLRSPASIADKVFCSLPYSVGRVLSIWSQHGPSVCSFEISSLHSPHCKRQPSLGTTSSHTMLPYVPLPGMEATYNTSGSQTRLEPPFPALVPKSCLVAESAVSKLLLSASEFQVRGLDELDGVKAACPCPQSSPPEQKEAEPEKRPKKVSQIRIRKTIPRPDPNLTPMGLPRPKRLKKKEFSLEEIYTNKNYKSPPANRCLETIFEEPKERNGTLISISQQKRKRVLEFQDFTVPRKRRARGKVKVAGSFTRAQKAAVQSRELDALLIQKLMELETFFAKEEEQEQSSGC
# UniProt Q5BJD5: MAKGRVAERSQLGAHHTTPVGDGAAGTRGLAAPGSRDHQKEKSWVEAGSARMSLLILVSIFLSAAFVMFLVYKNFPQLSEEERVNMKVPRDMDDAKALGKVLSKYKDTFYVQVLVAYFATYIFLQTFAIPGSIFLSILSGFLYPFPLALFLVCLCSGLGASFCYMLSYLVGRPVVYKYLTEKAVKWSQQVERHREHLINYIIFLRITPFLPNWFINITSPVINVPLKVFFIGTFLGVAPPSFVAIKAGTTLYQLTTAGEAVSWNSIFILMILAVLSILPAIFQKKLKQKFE
# UniProt Q6P6B7: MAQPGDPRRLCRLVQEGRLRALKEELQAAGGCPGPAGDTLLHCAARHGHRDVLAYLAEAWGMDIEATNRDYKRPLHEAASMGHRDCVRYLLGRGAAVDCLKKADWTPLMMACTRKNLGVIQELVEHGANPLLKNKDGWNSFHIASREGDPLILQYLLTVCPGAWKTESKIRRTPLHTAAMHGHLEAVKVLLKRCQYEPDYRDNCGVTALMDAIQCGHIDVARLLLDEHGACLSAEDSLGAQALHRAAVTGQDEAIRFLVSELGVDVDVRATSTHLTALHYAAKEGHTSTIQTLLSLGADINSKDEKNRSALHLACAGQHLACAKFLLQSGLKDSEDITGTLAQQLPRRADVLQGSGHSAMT
# UniProt Q5SWX8: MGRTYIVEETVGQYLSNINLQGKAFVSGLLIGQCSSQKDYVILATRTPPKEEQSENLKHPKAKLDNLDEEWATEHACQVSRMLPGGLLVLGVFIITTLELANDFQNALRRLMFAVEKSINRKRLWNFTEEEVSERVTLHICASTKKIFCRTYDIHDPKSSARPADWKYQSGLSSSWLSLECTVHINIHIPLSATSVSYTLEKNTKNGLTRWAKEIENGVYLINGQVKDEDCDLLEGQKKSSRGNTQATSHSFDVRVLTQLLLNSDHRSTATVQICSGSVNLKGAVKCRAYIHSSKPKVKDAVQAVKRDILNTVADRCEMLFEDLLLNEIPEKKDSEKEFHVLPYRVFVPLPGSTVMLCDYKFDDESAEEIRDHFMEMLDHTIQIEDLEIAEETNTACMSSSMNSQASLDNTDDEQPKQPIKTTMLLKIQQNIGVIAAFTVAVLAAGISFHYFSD
# UniProt Q5M775: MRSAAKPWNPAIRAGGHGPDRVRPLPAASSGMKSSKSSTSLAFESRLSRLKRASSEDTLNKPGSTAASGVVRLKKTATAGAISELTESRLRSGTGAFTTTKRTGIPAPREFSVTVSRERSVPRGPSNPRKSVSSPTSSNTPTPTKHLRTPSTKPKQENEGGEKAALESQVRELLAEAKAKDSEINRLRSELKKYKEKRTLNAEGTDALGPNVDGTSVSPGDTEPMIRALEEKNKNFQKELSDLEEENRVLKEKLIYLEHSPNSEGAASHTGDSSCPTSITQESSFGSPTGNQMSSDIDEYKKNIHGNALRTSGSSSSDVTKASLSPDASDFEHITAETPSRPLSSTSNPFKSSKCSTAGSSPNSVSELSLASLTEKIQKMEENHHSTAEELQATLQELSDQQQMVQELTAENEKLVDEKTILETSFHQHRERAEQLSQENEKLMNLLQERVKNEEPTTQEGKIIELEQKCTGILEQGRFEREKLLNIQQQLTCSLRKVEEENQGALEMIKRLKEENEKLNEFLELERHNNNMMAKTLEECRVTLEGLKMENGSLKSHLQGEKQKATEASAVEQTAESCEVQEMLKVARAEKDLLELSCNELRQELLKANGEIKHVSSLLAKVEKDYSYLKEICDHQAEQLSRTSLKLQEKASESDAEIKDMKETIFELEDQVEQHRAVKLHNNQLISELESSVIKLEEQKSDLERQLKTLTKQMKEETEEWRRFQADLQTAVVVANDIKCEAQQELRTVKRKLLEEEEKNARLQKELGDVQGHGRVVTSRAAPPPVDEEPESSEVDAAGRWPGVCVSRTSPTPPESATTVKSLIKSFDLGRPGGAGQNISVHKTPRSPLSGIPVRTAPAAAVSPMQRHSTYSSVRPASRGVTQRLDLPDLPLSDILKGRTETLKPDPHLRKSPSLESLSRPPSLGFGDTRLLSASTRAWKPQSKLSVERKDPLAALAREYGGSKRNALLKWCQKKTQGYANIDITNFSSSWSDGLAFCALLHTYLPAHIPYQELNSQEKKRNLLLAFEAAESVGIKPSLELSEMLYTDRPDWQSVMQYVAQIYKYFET
# UniProt Q6IN84: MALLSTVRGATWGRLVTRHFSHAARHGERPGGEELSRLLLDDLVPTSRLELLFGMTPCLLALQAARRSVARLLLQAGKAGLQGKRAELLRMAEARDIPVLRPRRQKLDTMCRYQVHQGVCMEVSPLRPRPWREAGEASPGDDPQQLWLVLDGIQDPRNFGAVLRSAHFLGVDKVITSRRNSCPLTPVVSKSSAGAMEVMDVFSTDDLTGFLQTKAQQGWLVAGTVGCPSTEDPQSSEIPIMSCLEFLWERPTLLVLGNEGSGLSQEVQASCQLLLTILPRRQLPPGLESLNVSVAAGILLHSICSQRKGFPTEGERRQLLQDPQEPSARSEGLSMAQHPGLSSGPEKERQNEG
# UniProt Q6IQ22: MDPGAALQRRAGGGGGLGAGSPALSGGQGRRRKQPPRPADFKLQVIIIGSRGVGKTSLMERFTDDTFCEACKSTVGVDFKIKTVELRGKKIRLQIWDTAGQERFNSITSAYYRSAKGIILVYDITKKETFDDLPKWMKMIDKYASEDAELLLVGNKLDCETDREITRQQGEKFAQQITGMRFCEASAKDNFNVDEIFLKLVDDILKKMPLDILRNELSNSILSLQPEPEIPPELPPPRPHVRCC
# ± gives the standard deviation of the averaged measurements. This is a selection; strong and weak results do not stand in their true shares.
# Compound: Nc1ncnc2c1ncn2[C@@H]1O[C@H](COP(=O)(O)OP(=O)(O)OP(=O)(O)O)[C@@H](O)[C@H]1O [adenosine triphosphate]
# Experiment: NP40-soluble protein abundance relative to vehicle (solubility fold change) (ratio); higher = more soluble protein in presence of ATP
# Summary of the method: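 Jurkat crude lysate (Dounce-homogenised) was treated with eight concentrations from 0.1 to 10 mM for 10 min at room temperature, then 3 min at 37 °C. It was solubilised with 0.8% NP40 and benzonase (60 min, 4 °C) and ultracentrifuged, and the supernatant was TMT-labelled for LC-MS/MS. Intensities were vsn-normalised, and the value is the fold change against the NP40-processed vehicle per replicate, from three independent experiments.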
target,measurement,setting,value
UniProt Q5W0U4 and related entries,NP40-soluble protein abundance,concentration: 1mM,1.06 ± 0.063
same,NP40-soluble protein abundance,concentration: 2mM,1 ± 0.023
same,NP40-soluble protein abundance,concentration: 4mM,1.03 ± 0.04
same,NP40-soluble protein abundance,concentration: 6mM,1.07 ± 0.0023
same,NP40-soluble protein abundance,concentration: 8mM,1.11 ± 0.096
same,NP40-soluble protein abundance,concentration: 10mM,1.11 ± 0.021
UniProt Q504Q3 and related entries,NP40-soluble protein abundance,concentration: 1mM,1.04 ± 0.11
same,NP40-soluble protein abundance,concentration: 2mM,1.05 ± 0.072
same,NP40-soluble protein abundance,concentration: 4mM,1.07 ± 0.039
same,NP40-soluble protein abundance,concentration: 6mM,0.979 ± 0.08
same,NP40-soluble protein abundance,concentration: 8mM,1.09 ± 0.011
same,NP40-soluble protein abundance,concentration: 10mM,1.08 ± 0.05
Q5JTV1 and related entries (UniProt Q9UKD1),NP40-soluble protein abundance,concentration: 1mM,1.01 ± 0.019
same,NP40-soluble protein abundance,concentration: 2mM,1.09 ± 0.061
same,NP40-soluble protein abundance,concentration: 4mM,1.03 ± 0.032
same,NP40-soluble protein abundance,concentration: 6mM,1.01 ± 0.023
same,NP40-soluble protein abundance,concentration: 8mM,1.01 ± 0.031
same,NP40-soluble protein abundance,concentration: 10mM,1.012 ± 0.0019
UHRF1BP1 (UniProt Q6BDS2),NP40-soluble protein abundance,concentration: 1mM,1.05 ± 0.13
same,NP40-soluble protein abundance,concentration: 2mM,1.04 ± 0.053
same,NP40-soluble protein abundance,concentration: 4mM,1.07 ± 0.081
same,NP40-soluble protein abundance,concentration: 6mM,1.09 ± 0.087
same,NP40-soluble protein abundance,concentration: 8mM,1.06 ± 0.034
same,NP40-soluble protein abundance,concentration: 10mM,1.08 ± 0.044
UniProt Q6P1J9,NP40-soluble protein abundance,concentration: 1mM,0.978 ± 0.018
same,NP40-soluble protein abundance,concentration: 2mM,0.984 ± 0.013
same,NP40-soluble protein abundance,concentration: 4mM,0.969 ± 0.034
same,NP40-soluble protein abundance,concentration: 6mM,0.99 ± 0.033
same,NP40-soluble protein abundance,concentration: 8mM,0.899 ± 0.028
same,NP40-soluble protein abundance,concentration: 10mM,0.799 ± 0.019
COQ5 (UniProt Q5HYK3),NP40-soluble protein abundance,concentration: 1mM,0.957 ± 0.042
same,NP40-soluble protein abundance,concentration: 2mM,0.942 ± 0.062
same,NP40-soluble protein abundance,concentration: 4mM,0.931 ± 0.082
same,NP40-soluble protein abundance,concentration: 6mM,0.896 ± 0.077
same,NP40-soluble protein abundance,concentration: 8mM,0.952 ± 0.04
same,NP40-soluble protein abundance,concentration: 10mM,0.9641 ± 0.0086
LACTB2 (UniProt Q53H82),NP40-soluble protein abundance,concentration: 1mM,1.01 ± 0.011
same,NP40-soluble protein abundance,concentration: 2mM,1 ± 0.039
same,NP40-soluble protein abundance,concentration: 4mM,0.979 ± 0.017
same,NP40-soluble protein abundance,concentration: 6mM,0.963 ± 0.068
same,NP40-soluble protein abundance,concentration: 8mM,1 ± 0.034
same,NP40-soluble protein abundance,concentration: 10mM,0.977 ± 0.039
UniProt Q5THK1 and related entries,NP40-soluble protein abundance,concentration: 1mM,0.975 ± 0.11
same,NP40-soluble protein abundance,concentration: 2mM,0.888 ± 0.074
same,NP40-soluble protein abundance,concentration: 4mM,0.859 ± 0.09
same,NP40-soluble protein abundance,concentration: 6mM,0.903 ± 0.075
same,NP40-soluble protein abundance,concentration: 8mM,0.864 ± 0.086
same,NP40-soluble protein abundance,concentration: 10mM,0.922 ± 0.094
TMEM41B (UniProt Q5BJD5),NP40-soluble protein abundance,concentration: 1mM,0.92 ± 0.052
same,NP40-soluble protein abundance,concentration: 2mM,0.962 ± 0.071
same,NP40-soluble protein abundance,concentration: 4mM,0.932 ± 0.042
same,NP40-soluble protein abundance,concentration: 6mM,0.919 ± 0.11
same,NP40-soluble protein abundance,concentration: 8mM,0.964 ± 0.059
same,NP40-soluble protein abundance,concentration: 10mM,0.957 ± 0.069
ANKRD16 (UniProt Q6P6B7),NP40-soluble protein abundance,concentration: 1mM,0.97 ± 0.091
same,NP40-soluble protein abundance,concentration: 2mM,1.05 ± 0.11
same,NP40-soluble protein abundance,concentration: 4mM,1.01 ± 0.023
same,NP40-soluble protein abundance,concentration: 6mM,0.942 ± 0.1
same,NP40-soluble protein abundance,concentration: 8mM,0.921 ± 0.11
same,NP40-soluble protein abundance,concentration: 10mM,0.958 ± 0.08
UniProt Q5SWX8 and related entries,NP40-soluble protein abundance,concentration: 1mM,1 ± 0.079
same,NP40-soluble protein abundance,concentration: 2mM,1.05 ± 0.068
same,NP40-soluble protein abundance,concentration: 4mM,1.06 ± 0.032
same,NP40-soluble protein abundance,concentration: 6mM,0.989 ± 0.075
same,NP40-soluble protein abundance,concentration: 8mM,1.02 ± 0.051
same,NP40-soluble protein abundance,concentration: 10mM,1.03 ± 0.044
UniProt Q5M775 and related entries,NP40-soluble protein abundance,concentration: 1mM,0.948 ± 0.055
same,NP40-soluble protein abundance,concentration: 2mM,0.901 ± 0.051
same,NP40-soluble protein abundance,concentration: 4mM,0.881 ± 0.038
same,NP40-soluble protein abundance,concentration: 6mM,0.926 ± 0.014
same,NP40-soluble protein abundance,concentration: 8mM,0.857 ± 0.05
same,NP40-soluble protein abundance,concentration: 10mM,0.908 ± 0.054
UniProt Q5MIZ7-2|Q5MIZ7-3,NP40-soluble protein abundance,concentration: 1mM,0.987 ± 0.021
same,NP40-soluble protein abundance,concentration: 2mM,0.973 ± 0.018
same,NP40-soluble protein abundance,concentration: 4mM,0.965 ± 0.018
same,NP40-soluble protein abundance,concentration: 6mM,1.01 ± 0.031
same,NP40-soluble protein abundance,concentration: 8mM,0.956 ± 0.014
same,NP40-soluble protein abundance,concentration: 10mM,0.97 ± 0.017
MRM1 (UniProt Q6IN84),NP40-soluble protein abundance,concentration: 1mM,1.18 ± 0.093
same,NP40-soluble protein abundance,concentration: 2mM,1.22 ± 0.083
same,NP40-soluble protein abundance,concentration: 4mM,1.38 ± 0.091
same,NP40-soluble protein abundance,concentration: 6mM,1.45 ± 0.18
same,NP40-soluble protein abundance,concentration: 8mM,1.47 ± 0.23
same,NP40-soluble protein abundance,concentration: 10mM,1.53 ± 0.19
RAB12 (UniProt Q6IQ22),NP40-soluble protein abundance,concentration: 1mM,0.961 ± 0.029
same,NP40-soluble protein abundance,concentration: 2mM,0.997 ± 0.058
same,NP40-soluble protein abundance,concentration: 4mM,1.03 ± 0.047
same,NP40-soluble protein abundance,concentration: 6mM,0.945 ± 0.071
same,NP40-soluble protein abundance,concentration: 8mM,0.982 ± 0.073
same,NP40-soluble protein abundance,concentration: 10mM,1.01 ± 0.024

# As a short view, some entries already given:
target,measurement,setting,value
Q5JTV1 and related entries (UniProt Q9UKD1),NP40-soluble protein abundance,concentration: 6mM,1.01 ± 0.023
same,NP40-soluble protein abundance,concentration: 8mM,1.01 ± 0.031
same,NP40-soluble protein abundance,concentration: 10mM,1.012 ± 0.0019
UHRF1BP1 (UniProt Q6BDS2),NP40-soluble protein abundance,concentration: 1mM,1.05 ± 0.13
same,NP40-soluble protein abundance,concentration: 2mM,1.04 ± 0.053
same,NP40-soluble protein abundance,concentration: 4mM,1.07 ± 0.081
same,NP40-soluble protein abundance,concentration: 6mM,1.09 ± 0.087
same,NP40-soluble protein abundance,concentration: 8mM,1.06 ± 0.034
same,NP40-soluble protein abundance,concentration: 10mM,1.08 ± 0.044
UniProt Q6P1J9,NP40-soluble protein abundance,concentration: 1mM,0.978 ± 0.018
same,NP40-soluble protein abundance,concentration: 2mM,0.984 ± 0.013
same,NP40-soluble protein abundance,concentration: 4mM,0.969 ± 0.034
same,NP40-soluble protein abundance,concentration: 6mM,0.99 ± 0.033
same,NP40-soluble protein abundance,concentration: 8mM,0.899 ± 0.028
same,NP40-soluble protein abundance,concentration: 10mM,0.799 ± 0.019
COQ5 (UniProt Q5HYK3),NP40-soluble protein abundance,concentration: 1mM,0.957 ± 0.042
same,NP40-soluble protein abundance,concentration: 2mM,0.942 ± 0.062
same,NP40-soluble protein abundance,concentration: 4mM,0.931 ± 0.082
same,NP40-soluble protein abundance,concentration: 6mM,0.896 ± 0.077
same,NP40-soluble protein abundance,concentration: 8mM,0.952 ± 0.04
same,NP40-soluble protein abundance,concentration: 10mM,0.9641 ± 0.0086
LACTB2 (UniProt Q53H82),NP40-soluble protein abundance,concentration: 1mM,1.01 ± 0.011
same,NP40-soluble protein abundance,concentration: 2mM,1 ± 0.039
